In the supplement of paper PMC10849652:
Some of the results follow.

By UniProt entry, the sequences of proteins in these tests, tags left out. Where a name states a change or a piece, a line headed by the entry shows the natural chain unless it says otherwise.
UniProt Q9UBK8: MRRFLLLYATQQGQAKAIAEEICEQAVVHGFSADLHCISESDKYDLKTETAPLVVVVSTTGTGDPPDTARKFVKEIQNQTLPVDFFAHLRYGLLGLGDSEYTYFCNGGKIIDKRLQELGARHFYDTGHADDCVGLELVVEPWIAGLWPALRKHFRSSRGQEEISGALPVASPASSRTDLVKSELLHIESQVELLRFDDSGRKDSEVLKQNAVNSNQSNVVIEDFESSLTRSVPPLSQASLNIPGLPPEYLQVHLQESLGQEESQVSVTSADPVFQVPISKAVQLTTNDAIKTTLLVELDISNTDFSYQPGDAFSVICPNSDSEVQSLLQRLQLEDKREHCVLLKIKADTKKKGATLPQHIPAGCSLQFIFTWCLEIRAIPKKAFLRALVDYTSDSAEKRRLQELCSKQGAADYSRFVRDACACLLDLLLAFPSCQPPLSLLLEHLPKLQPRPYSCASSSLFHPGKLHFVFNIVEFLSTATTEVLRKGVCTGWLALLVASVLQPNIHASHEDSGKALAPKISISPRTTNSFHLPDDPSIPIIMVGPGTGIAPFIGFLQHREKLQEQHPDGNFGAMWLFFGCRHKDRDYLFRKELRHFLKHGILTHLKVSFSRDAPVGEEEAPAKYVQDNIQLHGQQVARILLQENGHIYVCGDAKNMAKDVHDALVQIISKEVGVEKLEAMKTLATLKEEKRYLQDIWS
UniProt P42898: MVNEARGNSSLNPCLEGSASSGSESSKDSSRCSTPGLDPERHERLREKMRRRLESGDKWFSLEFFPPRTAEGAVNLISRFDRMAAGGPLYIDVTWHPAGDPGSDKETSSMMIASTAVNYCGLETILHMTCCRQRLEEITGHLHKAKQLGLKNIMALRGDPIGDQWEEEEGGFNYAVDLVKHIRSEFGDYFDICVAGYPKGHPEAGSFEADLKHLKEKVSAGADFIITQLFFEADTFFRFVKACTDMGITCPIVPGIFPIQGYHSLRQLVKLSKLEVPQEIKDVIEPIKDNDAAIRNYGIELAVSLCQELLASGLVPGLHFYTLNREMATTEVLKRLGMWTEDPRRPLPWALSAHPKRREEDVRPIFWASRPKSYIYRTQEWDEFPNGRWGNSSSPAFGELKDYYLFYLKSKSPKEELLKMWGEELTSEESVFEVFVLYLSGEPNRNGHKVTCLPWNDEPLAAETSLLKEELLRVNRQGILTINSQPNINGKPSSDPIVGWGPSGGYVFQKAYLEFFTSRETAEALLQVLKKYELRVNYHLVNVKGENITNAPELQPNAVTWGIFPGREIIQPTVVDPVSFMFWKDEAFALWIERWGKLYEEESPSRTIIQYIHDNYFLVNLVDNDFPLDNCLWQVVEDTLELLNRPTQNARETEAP
UniProt P03897, whole entry, looked up: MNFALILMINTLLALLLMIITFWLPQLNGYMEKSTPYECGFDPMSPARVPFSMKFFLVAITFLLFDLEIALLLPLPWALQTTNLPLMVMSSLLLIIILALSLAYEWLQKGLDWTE
UniProt O43196: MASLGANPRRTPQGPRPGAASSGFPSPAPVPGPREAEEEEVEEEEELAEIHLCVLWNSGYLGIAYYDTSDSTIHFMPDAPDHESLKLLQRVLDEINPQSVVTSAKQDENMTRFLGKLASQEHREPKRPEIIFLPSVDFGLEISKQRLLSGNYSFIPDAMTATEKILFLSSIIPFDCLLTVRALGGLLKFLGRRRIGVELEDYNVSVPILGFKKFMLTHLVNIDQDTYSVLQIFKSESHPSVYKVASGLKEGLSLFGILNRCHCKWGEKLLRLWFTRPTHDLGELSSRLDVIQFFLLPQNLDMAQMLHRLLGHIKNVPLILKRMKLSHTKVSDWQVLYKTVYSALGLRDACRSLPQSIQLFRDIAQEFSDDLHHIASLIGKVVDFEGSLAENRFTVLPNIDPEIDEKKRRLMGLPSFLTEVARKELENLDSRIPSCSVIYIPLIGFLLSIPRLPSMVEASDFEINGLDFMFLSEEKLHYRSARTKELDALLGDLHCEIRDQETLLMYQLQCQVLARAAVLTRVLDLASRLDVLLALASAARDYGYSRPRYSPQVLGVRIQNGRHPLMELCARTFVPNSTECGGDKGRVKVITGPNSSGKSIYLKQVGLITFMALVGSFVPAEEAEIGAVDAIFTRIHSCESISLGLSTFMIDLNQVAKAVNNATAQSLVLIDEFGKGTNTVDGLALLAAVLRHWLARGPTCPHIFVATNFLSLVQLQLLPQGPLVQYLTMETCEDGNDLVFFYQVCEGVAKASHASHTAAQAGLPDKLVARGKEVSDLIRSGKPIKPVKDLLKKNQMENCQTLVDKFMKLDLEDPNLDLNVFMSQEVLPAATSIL
UniProt P00414, whole entry, looked up: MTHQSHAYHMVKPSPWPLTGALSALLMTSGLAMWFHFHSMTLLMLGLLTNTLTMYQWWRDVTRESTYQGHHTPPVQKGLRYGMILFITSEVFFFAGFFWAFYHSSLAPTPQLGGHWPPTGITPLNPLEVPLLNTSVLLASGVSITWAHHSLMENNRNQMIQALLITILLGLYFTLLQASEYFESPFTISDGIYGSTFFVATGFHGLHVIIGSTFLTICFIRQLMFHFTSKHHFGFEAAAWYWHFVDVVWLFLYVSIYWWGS
UniProt Q9NVV4: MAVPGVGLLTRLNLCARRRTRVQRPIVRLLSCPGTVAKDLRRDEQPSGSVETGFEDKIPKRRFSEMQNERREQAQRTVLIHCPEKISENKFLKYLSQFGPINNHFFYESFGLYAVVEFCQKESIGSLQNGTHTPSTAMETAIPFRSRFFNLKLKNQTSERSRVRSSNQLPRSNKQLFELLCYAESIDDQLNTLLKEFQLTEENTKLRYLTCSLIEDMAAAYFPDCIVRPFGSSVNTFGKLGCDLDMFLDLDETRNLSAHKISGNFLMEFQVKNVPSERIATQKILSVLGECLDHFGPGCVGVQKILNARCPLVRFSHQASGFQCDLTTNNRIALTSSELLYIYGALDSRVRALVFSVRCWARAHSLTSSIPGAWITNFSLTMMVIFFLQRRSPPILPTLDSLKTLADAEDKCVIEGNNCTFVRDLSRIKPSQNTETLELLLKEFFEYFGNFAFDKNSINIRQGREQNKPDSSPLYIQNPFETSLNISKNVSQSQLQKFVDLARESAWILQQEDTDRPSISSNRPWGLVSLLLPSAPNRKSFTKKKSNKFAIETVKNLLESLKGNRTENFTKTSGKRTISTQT

Experiments:
Experiment in all cases: log2 fold change, soluble protein after heating vs DMSO (PISA); higher = thermal stabilisation; K562 lysate, 10 uM; active = over 0.2 and 3.5 SD of the protein, either way, in both replicates (recomputed)
[1] = compound: CCCS(=O)(=O)Nc1ccc(F)c(C(=O)c2c[nH]c3ncc(-c4ccc(Cl)cc4)cc23)c1F [vemurafenib]
Procedure, shortened: (§1)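 Log-two fold change in thermal stability relative to solvent controls is reported from duplicates. For each sample, crude K562 extract from dounce-homogenised pellets in PBS pH 7.4 with 1 mM MgCl2, at 1 mg/mL protein, was treated with 10 μM compound for 30 min. Aliquots heated for 3 min across 48°C-58°C were pooled, brought to 0.5% NP-40 at 4°C and cleared at 21,000xg for 90 min. The supernatant was quantified by TMTpro 16plex LC-MS/MS with channel sums equalised.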

[2] = compound: CCCS(=O)(=O)Nc1ccc(F)c(C(=O)c2c[nH]c3ncc(Cl)cc23)c1F
Procedure, shortened: as §1

[3] = compound: CCN(CCCOc1ccc2c(Nc3cc(CC(=O)Nc4cccc(F)c4)[nH]n3)ncnc2c1)CCOP(=O)(O)O [barasertib]
Procedure, shortened: as §1

[4] = compound: CC[C@@H]1C(=O)N(C)c2cnc(Nc3ccc(C(=O)NC4CCN(C)CC4)cc3OC)nc2N1C1CCCC1
Procedure, shortened: as §1

[5] = compound: CC[C@@H]1C(=O)N(C)c2cnc(Nc3ccc(C(=O)N[C@H]4CC[C@H](N5CCN(CC6CC6)CC5)CC4)cc3OC)nc2N1C(C)C [volasertib]
Procedure, shortened: as §1

[6] = compound: CCn1c(C(=O)N(C2CC2)C2CC2)cc2c3c(ncn3C)c(Nc3cc(C)n(C)n3)nc21
Procedure, shortened: as §1

[7] = compound: CCn1cc(-c2ccnc3[nH]c(-c4cccc(CN(C)C)c4)cc23)c(-c2ccc(NC(=O)N(C)C)cc2)n1
Procedure, shortened: as §1

[8] = compound: CN1CCC(CNc2ccc3ncc(-c4cccc(OC(F)(F)F)c4)n3n2)CC1
Procedure, shortened: as §1

[9] = compound: CN1CCN(CCOc2cc(OC3CCOCC3)c3c(Nc4c(Cl)ccc5c4OCO5)ncnc3c2)CC1 [saracatinib]
Procedure, shortened: as §1

[10] = compound: CN1CCN(c2nc(C3=C(c4c[nH]c5ccccc45)C(=O)NC3=O)c3ccccc3n2)CC1 [sotrastaurin]
Procedure, shortened: as §1

[11] = compound: CN1CC[C@H](c2c(O)cc(O)c3c(=O)cc(-c4ccccc4Cl)oc23)[C@H](O)C1 [alvocidib]
Procedure, shortened: as §1

[12] = compound: CN1CCc2c(c3ccccc3n2Cc2ccc(C(=O)NO)cc2)C1 [Tubastatin A]
Procedure, shortened: as §1

[13] = compound: CNC(=O)C1=CC=CC=C1NC2=NC(=NC=C2Cl)NC3=C(C=C(C=C3)N4CCOCC4)OC
Procedure, shortened: as §1

[14] = compound: CNC(=O)c1ccc(Nc2ncc(C(F)(F)F)c(NCc3nccnc3N(C)S(C)(=O)=O)n2)cc1 [defactinib]
Procedure, shortened: as §1

[15] = compound: CNc1nc(-c2ccc3c(N)n[nH]c3c2)cc(N2C[C@@H](C(=O)NC3CCCCC3)CC[C@H]2C)n1
Procedure, shortened: as §1

[16] = compound: COC(=O)N[C@@H](C)CNc1nccc(-c2cn(C(C)C)nc2-c2cc(Cl)cc(NS(C)(=O)=O)c2F)n1 [encorafenib]
Procedure, shortened: as §1

[17] = compound: COC(=O)[C@H](CCSC)NC(=O)C1=C(C=C(C=C1)NC[C@H](CS)N)C2=CC=CC=C2
Procedure, shortened: as §1

[18] = compound: COc1cc(Nc2ncc3c(n2)-c2ccc(Cl)cc2C(c2c(F)cccc2OC)=NC3)ccc1C(=O)O [alisertib]
Procedure, shortened: as §1

[19] = compound: COc1cc2nc(-c3cc(F)ccc3O)nc(N[C@@H]3CNC[C@H]3C(C)(C)O)c2cc1OC
Procedure, shortened: as §1

[20] = compound: COc1cc2ncnc(Nc3ccc(F)c(Cl)c3)c2cc1OCCCN1CCOCC1 [gefitinib]
Procedure, shortened: as §1

Measured: log2 fold change

MRPS30 (UniProt Q9NP92)
inactive: [1] 0.031 | [2] 0.047 | [3] 0.072 | [4] -0.019 | [5] -0.056 | [6] -0.051 | [7] -0.077 | [8] 0.046 | [9] 0.023 | [10] 0.006 | [11] -0.191 | [12] -0.121 | [13] -0.017 | [14] 0.162 | [15] 0.02 | [16] 0.013 | [17] 0.044 | [18] 0.05 | [19] -0.003 | [20] -0.055

MRPS7 (UniProt Q9Y2R9)
inactive: [1] -0.016 | [2] 0.01 | [3] -0.009 | [4] 0.022 | [5] -0.025 | [6] 0.022 | [7] 0.001 | [8] 0.01 | [9] 0.001 | [10] 0.022 | [11] -0.022 | [12] -0.021 | [13] 0.021 | [14] 0.003 | [15] 0.021 | [16] -0.007 | [17] -0.041 | [18] -0.017 | [19] 0.029 | [20] -0.01

MTRR isoform 1 (UniProt Q9UBK8)
inactive: [1] 0.077 | [2] 0.067 | [3] 0.015 | [4] 0.017 | [5] -0.088 | [6] -0.023 | [7] 0.003 | [8] 0.019 | [9] 0.006 | [10] -0.036 | [11] -0.03 | [12] 0.049 | [13] 0.005 | [14] 0.019 | [15] -0.035 | [16] 0.048 | [17] 0.01 | [18] -0.01 | [19] 0.013 | [20] 0

MTHFR isoform 2 (UniProt P42898)
inactive: [1] -0.009 | [2] 0.006 | [3] 0.032 | [4] -0.013 | [5] -0.023 | [6] -0.002 | [7] 0.021 | [8] 0.035 | [9] 0.002 | [10] 0.015 | [11] -0.008 | [12] 0.045 | [13] -0.001 | [14] -0.028 | [15] -0.001 | [16] -0.02 | [17] 0.087 | [18] 0.011 | [19] 0 | [20] -0.002

MT-ND3 (UniProt P03897)
inactive: [2] -0.102 | [3] 0.043 | [4] -0.187 | [5] -0.172 | [6] -0.019 | [7] -0.087 | [8] -0.16 | [10] 0.095 | [11] 0.292 | [12] 0.126 | [13] -0.076 | [16] 0.055 | [17] -0.026 | [18] -0.06 | [19] -0.265 | [20] 0.179

MSH5 isoform 3 (UniProt O43196)
inactive: [2] -0.109 | [4] -0.148 | [5] -0.067 | [6] 0.812 | [9] -0.063 | [10] 0.09 | [12] -0.057 | [15] 0.494 | [16] 0.13 | [17] 0.106 | [19] 0.061

MT-CO3 (UniProt P00414)
inactive: [1] -0.011 | [7] -0.295 | [8] 0.26 | [9] 0.063 | [11] -0.078 | [14] -0.304 | [15] 0.148

MTPAP (UniProt Q9NVV4)
inactive: [1] 0.048 | [2] 0.072 | [4] -0.05 | [5] -0.085 | [6] 0.104 | [7] 0.12 | [8] -0.107 | [9] -0.03 | [10] 0.076 | [11] -0.009 | [12] -0.053 | [13] -0.027 | [14] 0.059 | [15] 0.129 | [16] 0.028 | [17] -0.118 | [18] -0.035 | [19] -0.015 | [20] 0.024
